T1: CESA3 (cellulose synthase, primary cell wall), MbYTH fusion (Arabidopsis thaliana) (UniProt Q941L0)
T1 sequence: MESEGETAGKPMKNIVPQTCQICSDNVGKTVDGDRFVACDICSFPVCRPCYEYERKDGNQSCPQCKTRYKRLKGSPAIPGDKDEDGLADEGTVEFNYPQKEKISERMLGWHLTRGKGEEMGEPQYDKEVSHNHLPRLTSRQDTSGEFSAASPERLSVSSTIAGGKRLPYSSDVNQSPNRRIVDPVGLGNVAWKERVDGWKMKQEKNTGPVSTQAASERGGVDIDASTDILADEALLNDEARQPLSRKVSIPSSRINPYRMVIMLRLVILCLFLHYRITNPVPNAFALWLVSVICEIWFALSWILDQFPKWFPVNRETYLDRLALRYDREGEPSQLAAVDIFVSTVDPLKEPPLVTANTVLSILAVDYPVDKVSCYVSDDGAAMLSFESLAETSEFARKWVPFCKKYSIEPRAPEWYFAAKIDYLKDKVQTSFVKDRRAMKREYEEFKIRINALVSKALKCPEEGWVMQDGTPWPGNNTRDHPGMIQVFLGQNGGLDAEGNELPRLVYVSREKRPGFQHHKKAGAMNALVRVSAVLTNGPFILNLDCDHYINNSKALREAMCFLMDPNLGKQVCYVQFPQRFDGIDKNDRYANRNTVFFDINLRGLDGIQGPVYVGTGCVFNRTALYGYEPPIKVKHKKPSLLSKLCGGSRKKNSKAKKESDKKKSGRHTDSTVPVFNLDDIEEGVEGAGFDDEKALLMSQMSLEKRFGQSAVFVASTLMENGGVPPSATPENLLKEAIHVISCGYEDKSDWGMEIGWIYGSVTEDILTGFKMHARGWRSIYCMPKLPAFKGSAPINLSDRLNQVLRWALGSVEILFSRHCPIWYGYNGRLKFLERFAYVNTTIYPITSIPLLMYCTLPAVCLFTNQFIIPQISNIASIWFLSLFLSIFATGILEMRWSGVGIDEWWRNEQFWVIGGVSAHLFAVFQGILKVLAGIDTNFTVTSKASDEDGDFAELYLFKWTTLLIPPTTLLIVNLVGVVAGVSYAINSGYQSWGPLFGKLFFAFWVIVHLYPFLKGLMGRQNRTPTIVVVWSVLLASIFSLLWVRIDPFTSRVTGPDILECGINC

T2: KOR1C, transmembrane domain plus the C-terminal part of KOR1 (AA 70 to 621), MbYTH fusion (Arabidopsis thaliana) (UniProt Q38890)
T2 sequence: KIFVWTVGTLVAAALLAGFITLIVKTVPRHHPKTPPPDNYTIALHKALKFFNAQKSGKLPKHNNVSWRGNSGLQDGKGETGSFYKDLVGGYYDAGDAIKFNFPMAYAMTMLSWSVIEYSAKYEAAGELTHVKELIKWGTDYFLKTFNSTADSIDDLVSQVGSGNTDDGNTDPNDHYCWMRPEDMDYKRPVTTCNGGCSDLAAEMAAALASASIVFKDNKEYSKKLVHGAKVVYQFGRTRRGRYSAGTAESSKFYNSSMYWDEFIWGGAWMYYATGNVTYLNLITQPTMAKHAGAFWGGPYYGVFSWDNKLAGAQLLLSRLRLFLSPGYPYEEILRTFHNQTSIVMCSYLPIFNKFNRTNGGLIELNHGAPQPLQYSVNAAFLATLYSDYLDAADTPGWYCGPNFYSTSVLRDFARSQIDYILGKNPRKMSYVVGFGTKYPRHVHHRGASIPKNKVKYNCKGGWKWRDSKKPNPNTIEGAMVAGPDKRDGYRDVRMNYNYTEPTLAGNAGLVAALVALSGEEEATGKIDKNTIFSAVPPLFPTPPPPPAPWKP

T3: CESA7 (cellulose synthase, secondary cell wall), MbYTH fusion (Arabidopsis thaliana) (UniProt Q9SWW6)
T3 sequence: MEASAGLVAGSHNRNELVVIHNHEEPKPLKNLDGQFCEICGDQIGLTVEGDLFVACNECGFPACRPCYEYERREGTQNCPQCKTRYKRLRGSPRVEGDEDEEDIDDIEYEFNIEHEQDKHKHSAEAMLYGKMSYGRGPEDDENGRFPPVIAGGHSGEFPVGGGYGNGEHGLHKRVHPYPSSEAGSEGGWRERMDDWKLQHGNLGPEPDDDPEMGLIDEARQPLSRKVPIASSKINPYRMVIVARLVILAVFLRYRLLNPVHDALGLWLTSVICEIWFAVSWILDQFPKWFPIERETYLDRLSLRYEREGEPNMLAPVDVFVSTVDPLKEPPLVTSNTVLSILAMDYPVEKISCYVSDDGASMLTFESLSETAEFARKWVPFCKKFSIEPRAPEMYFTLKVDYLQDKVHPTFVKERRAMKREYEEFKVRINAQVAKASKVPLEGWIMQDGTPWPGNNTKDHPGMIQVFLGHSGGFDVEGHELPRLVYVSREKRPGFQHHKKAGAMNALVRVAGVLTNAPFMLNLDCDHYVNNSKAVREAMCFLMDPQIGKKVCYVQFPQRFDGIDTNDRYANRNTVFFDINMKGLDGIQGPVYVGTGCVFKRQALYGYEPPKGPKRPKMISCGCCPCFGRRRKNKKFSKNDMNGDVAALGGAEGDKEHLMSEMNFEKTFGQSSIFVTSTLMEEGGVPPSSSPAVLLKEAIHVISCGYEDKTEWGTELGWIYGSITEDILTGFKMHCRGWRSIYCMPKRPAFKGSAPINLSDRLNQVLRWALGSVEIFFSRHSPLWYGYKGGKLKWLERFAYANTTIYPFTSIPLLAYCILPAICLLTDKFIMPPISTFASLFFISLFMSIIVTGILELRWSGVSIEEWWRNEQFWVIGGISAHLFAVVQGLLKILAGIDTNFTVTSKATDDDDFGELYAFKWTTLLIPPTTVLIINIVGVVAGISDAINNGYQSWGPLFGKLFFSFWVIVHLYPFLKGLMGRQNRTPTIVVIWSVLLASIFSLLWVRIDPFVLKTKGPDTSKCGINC

B1: KOR1NOTMD, KOR1 without the transmembrane domain (AA 1 to 69+95 to 621), MbYTH prey (domain or fragment, UniProt Q38890)
chain: MYGRDPWGGPLEINTADSATDDDRSRNLNDLDRAALSRPLDETQQSWLLGPTEQKKKKYVDLGCIIVSRTVPRHHPKTPPPDNYTIALHKALKFFNAQKSGKLPKHNNVSWRGNSGLQDGKGETGSFYKDLVGGYYDAGDAIKFNFPMAYAMTMLSWSVIEYSAKYEAAGELTHVKELIKWGTDYFLKTFNSTADSIDDLVSQVGSGNTDDGNTDPNDHYCWMRPEDMDYKRPVTTCNGGCSDLAAEMAAALASASIVFKDNKEYSKKLVHGAKVVYQFGRTRRGRYSAGTAESSKFYNSSMYWDEFIWGGAWMYYATGNVTYLNLITQPTMAKHAGAFWGGPYYGVFSWDNKLAGAQLLLSRLRLFLSPGYPYEEILRTFHNQTSIVMCSYLPIFNKFNRTNGGLIELNHGAPQPLQYSVNAAFLATLYSDYLDAADTPGWYCGPNFYSTSVLRDFARSQIDYILGKNPRKMSYVVGFGTKYPRHVHHRGASIPKNKVKYNCKGGWKWRDSKKPNPNTIEGAMVAGPDKRDGYRDVRMNYNYTEPTLAGNAGLVAALVALSGEEEATGKIDKNTIFSAVPPLFPTPPPPPAPWKP
B2: KOR1N, N-terminal part of KOR1 with the transmembrane domain (AA 1 to 94), MbYTH fusion (domain or fragment, UniProt Q38890 1-94)
chain: MYGRDPWGGPLEINTADSATDDDRSRNLNDLDRAALSRPLDETQQSWLLGPTEQKKKKYVDLGCIIVSRKIFVWTVGTLVAAALLAGFITLIVK
B3: KORRIGAN1 (KOR1), complete protein (AA 1 to 621), MbYTH fusion (protein, UniProt Q38890 1-621)
chain: MYGRDPWGGPLEINTADSATDDDRSRNLNDLDRAALSRPLDETQQSWLLGPTEQKKKKYVDLGCIIVSRKIFVWTVGTLVAAALLAGFITLIVKTVPRHHPKTPPPDNYTIALHKALKFFNAQKSGKLPKHNNVSWRGNSGLQDGKGETGSFYKDLVGGYYDAGDAIKFNFPMAYAMTMLSWSVIEYSAKYEAAGELTHVKELIKWGTDYFLKTFNSTADSIDDLVSQVGSGNTDDGNTDPNDHYCWMRPEDMDYKRPVTTCNGGCSDLAAEMAAALASASIVFKDNKEYSKKLVHGAKVVYQFGRTRRGRYSAGTAESSKFYNSSMYWDEFIWGGAWMYYATGNVTYLNLITQPTMAKHAGAFWGGPYYGVFSWDNKLAGAQLLLSRLRLFLSPGYPYEEILRTFHNQTSIVMCSYLPIFNKFNRTNGGLIELNHGAPQPLQYSVNAAFLATLYSDYLDAADTPGWYCGPNFYSTSVLRDFARSQIDYILGKNPRKMSYVVGFGTKYPRHVHHRGASIPKNKVKYNCKGGWKWRDSKKPNPNTIEGAMVAGPDKRDGYRDVRMNYNYTEPTLAGNAGLVAALVALSGEEEATGKIDKNTIFSAVPPLFPTPPPPPAPWKP
B4: KOR1C, transmembrane domain plus the C-terminal part of KOR1 (AA 70 to 621), MbYTH fusion (domain or fragment, UniProt Q38890 70-621)
chain: T2 sequence

Results are given in words; binding and its absence hold for the method and conditions named. Some results given as binding are weak or reduced against the parent protein; the word gives no strength. Where a sequence is shown, tags or fusion partners need not be part of it.

The first assay concerns the target T1, CESA3 (cellulose synthase, primary cell wall), MbYTH fusion (Arabidopsis thaliana). Briefly: two-hybrid; split-ubiquitin membrane-based yeast two-hybrid (MbYTH) in S. cerevisiae NMY51; bait fused to Cub-TF, prey to NubG; 100 colonies of each combination spotted on selective medium with 3-AT, 30°C, three days, grown spots counted; called 'in vitro' by the paper.
B1: the binding result is reported as “no binding”.

B2: the binding result is “binds”.

For B3, the binding result is listed as “binds”.

KIFVWTVGTLVAAALLAGFITLIVK (domain or fragment, UniProt Q38890 70-94) [KOR1TMD, only the transmembrane domain of KOR1 (AA 70 to 94), MbYTH fusion]: the binding entry is on record as “binds”.

B4: the binding entry is listed as “binds”.

Another assay concerns the target T2, KOR1C, transmembrane domain plus the C-terminal part of KOR1 (AA 70 to 621), MbYTH fusion (Arabidopsis thaliana). Described as above.
Turning to B1, the binding entry is given as “no binding”.

Regarding B2, the binding entry is reported as “binds weakly”.

Consider KIFVWTVGTLVAAALLAGFITLIVK (domain or fragment, UniProt Q38890 70-94) [KOR1TMD, only the transmembrane domain of KOR1 (AA 70 to 94), MbYTH fusion], for which the binding result was “binds”.

For B4, the binding entry is listed as “binds”.

A further assay concerns the target T3, CESA7 (cellulose synthase, secondary cell wall), MbYTH fusion (Arabidopsis thaliana). The assay is described as above.
Take B1: the binding entry is on record as “no binding”.

Regarding B2, the binding entry is “no binding”.

Take B3: the binding result is “no binding”.

Consider KIFVWTVGTLVAAALLAGFITLIVK (domain or fragment, UniProt Q38890 70-94) [KOR1TMD, only the transmembrane domain of KOR1 (AA 70 to 94), MbYTH fusion], for which the binding entry is recorded as “no binding”.

Take B4: the binding result is “no binding”.

These data come from article PMC4226561.
